This passage reports binding results from US6706762.

Amino acid sequences for entries named in this document (tags omitted). Residues count along the entry.
UniProt Q9Y618, residues 1020-2514: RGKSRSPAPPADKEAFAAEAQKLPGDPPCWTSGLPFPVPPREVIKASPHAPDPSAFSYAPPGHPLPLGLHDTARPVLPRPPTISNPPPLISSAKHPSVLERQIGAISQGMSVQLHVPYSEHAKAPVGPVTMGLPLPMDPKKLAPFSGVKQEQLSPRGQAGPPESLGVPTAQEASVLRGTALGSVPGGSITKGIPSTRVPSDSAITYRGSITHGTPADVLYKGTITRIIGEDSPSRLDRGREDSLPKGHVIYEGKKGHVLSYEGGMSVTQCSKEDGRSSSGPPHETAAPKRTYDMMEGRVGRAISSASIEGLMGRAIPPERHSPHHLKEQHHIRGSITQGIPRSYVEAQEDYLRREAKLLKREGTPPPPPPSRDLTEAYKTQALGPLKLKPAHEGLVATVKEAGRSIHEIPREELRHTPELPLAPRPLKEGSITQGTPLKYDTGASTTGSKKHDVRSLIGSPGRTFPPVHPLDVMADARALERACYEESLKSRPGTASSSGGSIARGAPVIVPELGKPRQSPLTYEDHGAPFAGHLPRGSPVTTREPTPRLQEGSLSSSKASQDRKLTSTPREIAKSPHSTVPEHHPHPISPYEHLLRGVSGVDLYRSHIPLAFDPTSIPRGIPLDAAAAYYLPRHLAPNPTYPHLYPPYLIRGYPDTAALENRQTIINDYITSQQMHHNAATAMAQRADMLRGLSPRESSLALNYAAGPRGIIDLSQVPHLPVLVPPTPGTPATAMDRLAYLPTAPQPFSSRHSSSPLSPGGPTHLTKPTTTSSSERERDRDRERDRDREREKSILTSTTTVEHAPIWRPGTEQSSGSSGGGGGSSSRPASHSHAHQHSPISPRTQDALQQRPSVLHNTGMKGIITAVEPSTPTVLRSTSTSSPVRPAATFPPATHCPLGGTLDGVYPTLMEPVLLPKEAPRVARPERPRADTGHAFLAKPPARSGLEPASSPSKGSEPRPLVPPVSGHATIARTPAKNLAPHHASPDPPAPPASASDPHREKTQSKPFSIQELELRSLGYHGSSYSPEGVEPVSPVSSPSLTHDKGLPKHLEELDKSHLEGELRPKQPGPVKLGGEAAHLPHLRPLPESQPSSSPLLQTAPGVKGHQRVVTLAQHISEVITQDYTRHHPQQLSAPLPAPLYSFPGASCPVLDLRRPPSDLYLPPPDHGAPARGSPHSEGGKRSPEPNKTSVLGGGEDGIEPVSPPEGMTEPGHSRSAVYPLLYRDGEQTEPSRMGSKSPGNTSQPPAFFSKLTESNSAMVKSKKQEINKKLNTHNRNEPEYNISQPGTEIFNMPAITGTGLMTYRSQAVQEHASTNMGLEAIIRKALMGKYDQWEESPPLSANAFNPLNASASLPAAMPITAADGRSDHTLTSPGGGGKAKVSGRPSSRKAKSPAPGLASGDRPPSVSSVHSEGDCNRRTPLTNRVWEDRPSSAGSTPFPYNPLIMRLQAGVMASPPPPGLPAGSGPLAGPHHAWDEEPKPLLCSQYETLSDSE

These are yes or no findings as the source states them, for the method shown. Some entries that bind do so weakly or less than the wild type. Sequences can lack the tags named with a protein.

In this assay the target is T1, HA-PLZF (UniProt Q05516).
T1 sequence (looked up): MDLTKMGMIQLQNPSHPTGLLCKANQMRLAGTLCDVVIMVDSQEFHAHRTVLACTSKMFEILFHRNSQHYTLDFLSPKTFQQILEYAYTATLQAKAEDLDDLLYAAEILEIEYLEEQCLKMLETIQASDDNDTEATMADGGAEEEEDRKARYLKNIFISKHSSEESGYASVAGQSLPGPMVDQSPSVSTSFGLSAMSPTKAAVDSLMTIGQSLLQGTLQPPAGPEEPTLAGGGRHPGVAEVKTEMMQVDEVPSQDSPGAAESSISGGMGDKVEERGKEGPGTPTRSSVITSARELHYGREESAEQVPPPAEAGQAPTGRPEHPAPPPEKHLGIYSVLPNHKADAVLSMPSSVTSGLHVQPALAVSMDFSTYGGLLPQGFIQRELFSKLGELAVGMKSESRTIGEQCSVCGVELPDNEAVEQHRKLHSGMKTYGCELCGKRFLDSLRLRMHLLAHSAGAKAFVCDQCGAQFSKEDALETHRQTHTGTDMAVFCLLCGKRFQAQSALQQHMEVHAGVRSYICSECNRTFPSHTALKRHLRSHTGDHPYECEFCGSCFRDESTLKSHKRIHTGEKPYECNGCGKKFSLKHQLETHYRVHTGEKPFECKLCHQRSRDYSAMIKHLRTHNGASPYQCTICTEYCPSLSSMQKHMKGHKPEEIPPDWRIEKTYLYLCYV
Nature of the assay: anti-HA immunoprecipitation of in vitro translated proteins.

“SMRT (full length) (from UniProt Q9Y618 1020-2514)”: the binding entry is reported as “binds”.
